PubChem BioAssay AID652243, Drosophila RNAi Screening Center | 2013

Screen: 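Fly regulators of androgen-dependent reporter output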 (primary screen)
System: Drosophila S2R+ cells
Reagent: long dsRNA against Drosophila genes
Time to read-out: 72 h (48 h, then 24 h hormone)
Treatment: synthetic androgen R1881 at 10 nM for 24 h
Measured: 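Firefly light from an androgen-responsive reporter and Renilla control light per well, raw and unnormalised, for each of two replicates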
Scale: firefly reporter light: higher = more light from androgen-responsive reporter; Renilla control light: higher = more constitutive control signal (cell number, transfection)
Active means: 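Across duplicate plates, a knock-down whose log firefly/Renilla ratio shifted a set fold down or up from the GFP/LacZ control mean was a hit; the downward cut appears as both 1.5 and 3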
Calls: active = hit: reporter lowered or raised; inactive = no hit
The deposit covers about 24,000 reagents; this is a random part of those that have a named target and a result. Of all reagents, 246 (1%) got an active call. 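Plates not normalised; calls are printed but the firefly/Renilla ratio behind them is not deposited; fold cut for lowering reported inconsistently.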 The raw values are shown without normalisation. Entries without a mark were called inactive. The numbers tell different reagents against one gene apart. Names joined by + are all predicted targets of the reagent. Reagent sequences are not shown. Not stated in the record: the amount of reagent.

target gene,reagent no.,"firefly reporter light, replicate 1","firefly reporter light, replicate 2","Renilla control light, replicate 1","Renilla control light, replicate 2"
CG18477 + CG31780,1,1.03e5,1.63e5,1.47e6,1.91e6
CG32487,1,5.07e5,5.16e5,1.71e6,2.26e6
CG32487,2,5.06e5,4.76e5,1.59e6,1.51e6
CG4716,1,5.65e5,6.68e5,6.53e5,8.83e5
CG4716,2,2.74e5,2.99e5,6.87e5,7.43e5
Osi1,1,16511,262,,
Smn,1,38956,44826,4.21e5,4.21e5
mr,1,1.17e6,7.92e5,1.71e6,1.98e6
mr,2,7.76e5,1.39e6,7.13e5,1.38e6
mr,3,4.28e5,4.72e5,1.05e6,1.05e6
CG34436,1,1.92e5,2.17e5,1.51e6,2.74e6
obst-J,1,2.26e5,2.29e5,2.46e6,3.02e6
obst-J,2,2.97e5,6.12e5,9.50e5,2.11e6
Cyp6t2Psi,1,2.12e5,2.38e5,5.66e5,5.98e5
Cyp6t2Psi,2,3.03e5,5.11e5,5.03e5,5.03e5

A few values from the entries so far.
Under “firefly reporter light, replicate 1”, CG4716 #2 has 2.74e5
obst-J #2, firefly reporter light, replicate 1 = 2.97e5

Next reagents:
target gene,reagent no.,"firefly reporter light, replicate 1","firefly reporter light, replicate 2","Renilla control light, replicate 1","Renilla control light, replicate 2"
wa-cup,1,1.03e5,1.00e5,2.36e6,2.03e6
CG4789,1,6.43e5,3.25e5,3.94e6,2.40e6
CG18418,1,1.15e6,6.18e5,1.58e6,7.97e5
CG18418,2,9.35e5,9.53e5,1.00e6,7.72e5
CG4404,1,1.21e5,1.29e5,1.69e6,2.01e6
CG4404,2,9.16e5,9.66e5,1.03e6,8.27e5
CG6195,1,2.20e5,3.36e5,3.07e6,3.25e6
CG6195,2,7.11e5,7.38e5,8.62e5,8.79e5
CG33093,1,4.25e5,4.97e5,2.92e6,3.81e6
